# Assay results published in PMC7819943, “Rice protein-binding microarrays: a tool to detect cis-acting elements near promoter regions in rice”.
# The chains behind the UniProt entries cited, without tags or fusion partners.
# UniProt Q0JBA9, entry or part of it: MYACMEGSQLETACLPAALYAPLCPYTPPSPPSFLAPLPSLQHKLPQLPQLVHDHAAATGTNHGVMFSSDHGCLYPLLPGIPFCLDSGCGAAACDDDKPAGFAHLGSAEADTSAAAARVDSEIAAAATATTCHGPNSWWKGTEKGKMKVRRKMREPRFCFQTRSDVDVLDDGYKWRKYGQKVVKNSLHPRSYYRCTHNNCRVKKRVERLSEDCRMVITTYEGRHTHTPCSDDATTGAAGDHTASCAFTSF
# This is one part of the list.
# Target: OsWRKY34 (Oryza sativa, UniProt Q0JBA9 1-250)
# Assay: protein-binding microarray (RPBM); PBS, 2% BSA, 51.3 ng/ul salmon testes DNA, 50 uM zinc acetate, 200 nM TF, 25 C, 1 h; high values mean tight binding
# Details: protein: recombinant; tags: N-terminal polyhistidine and DsRed monomer fusion (pET32a); label: CyDye5-dUTP incorporated in the synthesized complementary strand; 3' TTTTT single-stranded linker to array surface; dsDNA, one strand shown
# Method in brief: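 Per-feature fluorescence intensity (arbitrary units), read on an Axon 4000B scanner, is the binding signal. Transcription factors carrying an N-terminal polyhistidine tag and DsRed fusion were expressed in E. coli BL21-CodonPlus and purified on Ni–NTA. A custom Agilent array, made double-stranded by primer extension with Cy5-dUTP and blocked with 2% BSA, was incubated with 200 nM protein in PBS, 2% BSA, salmon testes DNA and 50 µM zinc acetate at 25 °C for 1 h and then washed.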
row,Sequence,binding signal
1,AGCGGAGCCGTTCTCCACCTTCTGCACTACCGTATTCTCTCGGAGTCACCTAGTGCAG,8040 fluorescence intensity (a.u.)
2,GCTTTTTATTTCTGGTGAGTGGTGACCATTCCTAGTTTCCCGGAGTCACCTAGTGCAG,8990 fluorescence intensity (a.u.)
3,ATTCTCTTCCTACCTCGTTTAGTTATGCATCTTGCTTCGCCGGAGTCACCTAGTGCAG,13200 fluorescence intensity (a.u.)
4,AACCCGTTCACACACATTGTCAGGGACCAGCTCATTACTTCGGAGTCACCTAGTGCAG,10400 fluorescence intensity (a.u.)
5,TTGTAGAGATCAGTGAATTTTTTTTGGCGTTGTTTATTCTCGGAGTCACCTAGTGCAG,11600 fluorescence intensity (a.u.)
6,GCACCTATTTAAGGGGTTTCTAGCTGCTGCAATTTCTTTCCGGAGTCACCTAGTGCAG,8190 fluorescence intensity (a.u.)
7,GCTGTTCTTGGTTCTCGTGCTCTGATCCATTTGGCAAAATCGGAGTCACCTAGTGCAG,11200 fluorescence intensity (a.u.)
8,GCAATTTTGATGTGTGCCGTTCTTTATTACTACGTGTTAGCGGAGTCACCTAGTGCAG,9480 fluorescence intensity (a.u.)
9,CTCTATCACCGCCAGTCTGACCGGCATACACAGCCCGGTCCGGAGTCACCTAGTGCAG,10100 fluorescence intensity (a.u.)
10,TATATATATATATATATATATATATATTCGACTTCTATATCGGAGTCACCTAGTGCAG,14200 fluorescence intensity (a.u.)
11,TCCTGATCCCCTCACACCACCACGCGGCCCTCGGTCTTCCCGGAGTCACCTAGTGCAG,8240 fluorescence intensity (a.u.)
12,AAATGTGTGCTAGTTATCTGTTATGGATGAAACCCTCACTCGGAGTCACCTAGTGCAG,9970 fluorescence intensity (a.u.)
13,AGACAACACATTTCTCTCATAAAGCTTTCACTGGCATATACGGAGTCACCTAGTGCAG,8410 fluorescence intensity (a.u.)
14,AATGTGGCTGCATATTTGTGTTTATTCATCTTTCTTCCTACGGAGTCACCTAGTGCAG,9370 fluorescence intensity (a.u.)
15,TGGTGTTTGGTTGGAGGGACTAAAGTAGGGCTAAACTTTACGGAGTCACCTAGTGCAG,8870 fluorescence intensity (a.u.)
16,CAACTACGCCGCCTCCATGAGCTCCATCACGGTGCTTCGCCGGAGTCACCTAGTGCAG,8120 fluorescence intensity (a.u.)
17,TTCAGATACATTATATTAGGAGGGGTCACAGGTTAAATTTCGGAGTCACCTAGTGCAG,9080 fluorescence intensity (a.u.)
18,GGGAGTACATTTCTATTAGTTGCCAGATGAGAATTTGCAACGGAGTCACCTAGTGCAG,8180 fluorescence intensity (a.u.)
19,TTTGCTGCTGGTCGATCCATACATACACACTCCAATATACCGGAGTCACCTAGTGCAG,8800 fluorescence intensity (a.u.)
20,ATTTATCCTTTTGTTATTATTCCTTTTGGGATCGATCGATCGGAGTCACCTAGTGCAG,9900 fluorescence intensity (a.u.)
21,GGAAGATATAATTTCCTTTTATTCTGTCATTTCTTTTCTTCGGAGTCACCTAGTGCAG,8140 fluorescence intensity (a.u.)

# In another format: entries from further up.
row	Sequence	binding signal
9	CTCTATCACCGCCAGTCTGACCGGCATACACAGCCCGGTCCGGAGTCACCTAGTGCAG	10100 fluorescence intensity (a.u.)
17	TTCAGATACATTATATTAGGAGGGGTCACAGGTTAAATTTCGGAGTCACCTAGTGCAG	9080 fluorescence intensity (a.u.)

# Additional records.

row,Sequence,binding signal
1,CCTGCTTACTGTACATCTCTGTCATCATCCTGGCTGCAACCGGAGTCACCTAGTGCAG,9690 fluorescence intensity (a.u.)
2,CTTTCATTTTTTCCATCACATTGTTTCAATTTCAACCAAACGGAGTCACCTAGTGCAG,9160 fluorescence intensity (a.u.)
3,GAAAAATCTTTTGGCCGTACTTTTTTCATCTGGGTCCCTTCGGAGTCACCTAGTGCAG,8490 fluorescence intensity (a.u.)
4,AGTTGTGCATCTAGCCATTTTACTTTTCTTTTTTAAAAGACGGAGTCACCTAGTGCAG,9080 fluorescence intensity (a.u.)
5,AACATTCAAACTGCCGCATATTCCTAACATTCCACATCCACGGAGTCACCTAGTGCAG,9420 fluorescence intensity (a.u.)
6,CACCACTCGCCTCCGGATTGAATCCCTCCTAGCTCAGGAACGGAGTCACCTAGTGCAG,8490 fluorescence intensity (a.u.)
7,GCTCTCCGCCGACCTCCGCCGCGCGCCCACTCCCTTCTCCCGGAGTCACCTAGTGCAG,10300 fluorescence intensity (a.u.)
8,GGTCCACTGTGAAACATTTTCCTAGGTACTTTTGATATGGCGGAGTCACCTAGTGCAG,8640 fluorescence intensity (a.u.)
9,AGCGTCGCCGTCGTTGTTGCCTTGCCTCGCGACGCCGCTCCGGAGTCACCTAGTGCAG,8030 fluorescence intensity (a.u.)
10,CGATGAGGAGGAGGAGGGGCAACAGTGTTAGGGTGGATTTCGGAGTCACCTAGTGCAG,12100 fluorescence intensity (a.u.)
11,ACAAGAGCTCGGTCGCGTTGGGGTTTGGGGATCGATTGATCGGAGTCACCTAGTGCAG,9090 fluorescence intensity (a.u.)
12,ACGCCTTCCTCTCTTTTTCTTCTCTCACCTGTGCCGTTTCCGGAGTCACCTAGTGCAG,10800 fluorescence intensity (a.u.)
13,CCACCACCCCAACCCGCGTCTCCCTCGCCGCCGCCACCGCCGGAGTCACCTAGTGCAG,8660 fluorescence intensity (a.u.)
14,ATCACTTCATCTTATTTGACTTGTTCTGTTCTTCACAATTCGGAGTCACCTAGTGCAG,11100 fluorescence intensity (a.u.)
15,TCCAACCTTGCTGCTCATCTCAGCACTACTTACCGGCGTTCGGAGTCACCTAGTGCAG,8110 fluorescence intensity (a.u.)
16,TCATCGCCACCAAAGCCGTTGACCTCGCAGCTTTAATCCCCGGAGTCACCTAGTGCAG,12100 fluorescence intensity (a.u.)
17,TTCATTTTTCTTCTCCTTTTACTGTTGTGAAAATATTGTTCGGAGTCACCTAGTGCAG,10200 fluorescence intensity (a.u.)
18,TTCCGATTCCCGCAGCCGTATCTCGACGAACGCCGCGGCCCGGAGTCACCTAGTGCAG,8730 fluorescence intensity (a.u.)
19,ATTCCACGATTCAGGGGCGGTCCTTTTTCTCATTTTTTTCCGGAGTCACCTAGTGCAG,11500 fluorescence intensity (a.u.)
20,ACCACCATGCTAGTTACTACTTATTACAATAGCTTTGTGCCGGAGTCACCTAGTGCAG,8410 fluorescence intensity (a.u.)
21,GTTTTTTTTTTTCCTTTCACTTCCTTCCTGGGCTTTATTTCGGAGTCACCTAGTGCAG,17300 fluorescence intensity (a.u.)
